PubChem BioAssay AID743454 – Peter MacCallum Cancer Centre – 2014
Aim: 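Genes whose loss kills vorinostat-resistant colon cancer cells under vorinostat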 (primary screen). Cell system: human HCT116-VR colon cancer cells, selected for vorinostat resistance. Reagent: siRNA pool against human genes, 40 nM siRNA pool. Timing: vorinostat for 24 h, read-out about 72 h after transfection. Treatment: vorinostat at 2.5 µM final. Measurement: 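Cell viability by CellTiter-Fluor and caspase 3/7 activity by luminescence, each scaled to mock wells per plate, duplicates averaged, then robust z-scored over all plates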. Reading the numbers: viability robust z-score: higher = more viable cells than screen typical; caspase robust z-score: higher = more caspase 3/7 activity than screen typical. Active means: 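Hits are knock-downs in viability class RV1/RV2 or caspase class CA1/CA2, excluding ones that killed cells in the no-drug cell-count arm; hits then retested with single siRNAs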.
This is a random part of about 18,000 reagents. 450 of them (2.5%) were called active. 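Single biological run; no consistent viability z cut-off exists, so the class columns, not z-scores, define the calls.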

VAC14
- viability hit class: no change
- caspase hit class: no change
- viability robust z-score: 0.77
- caspase robust z-score: 0.98
- activity call: inactive

TNS3
- viability hit class: no change
- caspase hit class: no change
- viability robust z-score: -0.25
- caspase robust z-score: -0.92
- activity call: inactive

ZSCAN16
- viability hit class: no change
- caspase hit class: no change
- viability robust z-score: 0.73
- caspase robust z-score: -0.22
- activity call: inactive

FASN
- viability hit class: no change
- caspase hit class: no change
- viability robust z-score: 0.72
- caspase robust z-score: -0.73
- activity call: inactive

BTBD7
- viability hit class: no change
- caspase hit class: no change
- viability robust z-score: -0.68
- caspase robust z-score: -1.17
- activity call: inactive

SLC25A12
- viability hit class: no change
- caspase hit class: no change
- viability robust z-score: 1.22
- caspase robust z-score: 0.92
- activity call: inactive

EAPP
- viability hit class: no change
- caspase hit class: no change
- viability robust z-score: 1.25
- caspase robust z-score: -0.86
- activity call: inactive

PSG6
- viability hit class: no change
- caspase hit class: no change
- viability robust z-score: 0.6
- caspase robust z-score: 3.64
- activity call: inactive

KCNE4
- viability hit class: no change
- caspase hit class: no change
- viability robust z-score: -0.08
- caspase robust z-score: -0.86
- activity call: inactive

MIMS2
- viability hit class: no change
- caspase hit class: no change
- viability robust z-score: 1.08
- caspase robust z-score: -0.19
- activity call: inactive

NXNL2
- viability hit class: no change
- caspase hit class: no change
- viability robust z-score: -0.94
- caspase robust z-score: -0.14
- activity call: inactive

ACKR1
- viability hit class: no change
- caspase hit class: no change
- viability robust z-score: -2.38
- caspase robust z-score: -0.01
- activity call: inactive

No new results follow: an excerpt of the list.
SLC25A12
- viability hit class: no change
- caspase hit class: no change
- viability robust z-score: 1.22
- caspase robust z-score: 0.92
- activity call: inactive

EAPP
- viability hit class: no change
- caspase hit class: no change
- viability robust z-score: 1.25
- caspase robust z-score: -0.86
- activity call: inactive
